# Literature values in US9114109B2, “Five-coordinate neuroglobin and use thereof as a blood substitute” (University of Pittsburgh—Of the Commonwealth System of …, priority 2009, dated 2015).
# Where two headings read alike, the source gives them in different places.
# Conditions: cited from earlier work
molecule,measurement,setting,value
"neuroglobin: heme containing, monomeric, 16.9 kDa protein; literature values of the background section (protein, listed as Homo sapiens) MERPEPELIRQSWRAVSRSPLEHGTVLFARLFALEPDLLPLFQYNCRQFSSPEDCLSSPEFLDHIRKVMLVIDAAVTNVEDLSSLEEYLASLGRKHRAVGVKLSSFSTVGESLLYMLEKCLGPAFTPATRAAWSQLYGAVVQAMSRGWDGE","distal histidine binding affinity to heme iron KHis (kon/koff, dimensionless)",after disulfide bond formation,280
same,"distal histidine binding affinity to heme iron KHis (kon/koff, dimensionless)",before disulfide bond formation,~3000
